Laboratory results as given in PubChem BioAssay AID493014 (National Center for Advancing Translational Sciences (NCATS), 2011).
This is one part of the list. Further columns of the screen follow, without active or inactive calls. Most of these compounds were active or inconclusive in the main read-out, so they are no random draw. The note in brackets gives the kind of curve behind each potency; many fits are weak.

Assay: qHTS Assay to Find Inhibitors of Chronic Active B-Cell Receptor Signaling
Details: ABC-DLBCL IkBa-CBG/CBR reporter, luminescence ratio (green luciferase fused to IkBa over red control in TMD8 lymphoma cells), 4 h
Procedure, shortened: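 Compounds up to 46 uM were incubated four hours with TMD8 cells whose green CBG68 luciferase is fused to IkappaBalpha; red CBR luminescence normalised the signal, and concentration-effect curves were fitted to fusion, red and ratio data.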

[1] = measured here: CBR red luminescence, cell number
[2] = measured here: IkBa-CBG green luminescence

Row | SMILES | AC50 [1] | AC50 [2]
1 | Cc1cc(NC(=O)c2c(Cl)cccc2Cl)no1 | 17.8 µM [falling, partial curve, poor fit] | 
2 | CC(C)CC1(C)NC(=O)N(Cc2cc([N+](=O)[O-])cc3c2OCOC3)C1=O (stereo not drawn) | 0.316 µM [rising, full curve, poor fit] | 
3 | COC(=O)C1=C(C)NC(C)=C(C(=O)OC)C1c1ccc(N(C)C)cc1 |  | 23.1 µM [falling, partial curve, poor fit]
4 | N#CSCC(=O)c1cccc2ccccc12 | 23.1 µM [rising, single point] | 29.1 µM [falling, single point]
5 | CCc1nnc(NC(=O)c2ccc(S(=O)(=O)N3CCCc4ccccc43)cc2)o1 | 0.184 µM [falling, full curve, poor fit] | 
6 | NC(N)=NC(N)=Nc1ccc(SC(F)(F)F)cc1 | 16.4 µM [falling, partial curve] | 
7 | COc1ccc(/C=C2\COc3ccccc3C2=O)cc1OC | 29.1 µM [falling, single point] | 
8 | CC1CCc2c(C(=O)Nc3ccc(N4CCOCC4)cc3)csc2C1 (stereo not drawn) | 11.2 µM [rising, partial curve, poor fit] | 
9 | COC(=O)c1ccc(COc2ccccc2/C=C(\C#N)C(=O)Nc2c(C)cccc2C)cc1 | 18.4 µM [falling, partial curve] | 20.6 µM [falling, single point]
10 | COc1cccc(C(=O)Nc2ccc(NC(=O)C3CC3)cn2)c1 | 2 µM [falling, full curve] | 
11 | CCCC(=O)Nc1ccc(NC(=O)c2cc3ccccc3o2)c(OC)c1 | 31.6 µM [rising, single point] | 
12 | COc1ccc(-n2c(=O)[nH]c3c(C(N)=O)nc(C4CCCCC4)nc32)cc1 | 11.2 µM [rising, single point] | 
13 | COc1ccc(OC)c(CNC(=O)C2CCN(C(=O)N(C)C)CC2)c1 | 4.61 µM [falling, single point] | 
14 | CN(C)C(CNC(=O)CCCOc1ccccc1)c1ccco1 (stereo not drawn) | 29.1 µM [rising, single point] | 
15 | CN(C)c1ccc(NC(=O)Nc2cccc(Cl)c2)cc1 | 9.2 µM [falling, partial curve, poor fit] | 
16 | O=C(O)CNC(=O)c1ccccc1F | 3.98 µM [falling, full curve] | 
17 | Cc1cccc(Nc2nc(NCC3CCCO3)nc(N)c2[N+](=O)[O-])c1 (stereo not drawn) | 32.6 µM [rising, single point] | 
18 | Cc1cc(C(=O)N2CCC(C(=O)O)CC2)c(C(F)(F)F)o1 | 14.1 µM [falling, partial curve, poor fit] | 
19 | CCN1CCN(c2ccc(S(=O)(=O)N3CCCCC3)cc2NC(=O)Cc2c(Cl)cccc2Cl)CC1 | 0.447 µM [rising, partial curve, poor fit] | 
20 | Cc1cc(OCCOCCNC(C)C)cc(C)c1Cl | 2.06 µM [falling, full curve] | 
21 | CN(C)S(=O)(=O)Oc1cccc(C(=O)Nc2ccc(Cl)c(Cl)c2)c1 | 10 µM [falling, partial curve] | 

Row | SMILES | AC50 [1] | AC50 [2]
22 | Cc1ccc(-c2csc(NC(=O)Cn3cnc4c3c(=O)n(C)c(=O)n4C)n2)cc1C | 1.3 µM [falling, full curve, poor fit] | 
23 | O=C(c1cnn2c1NC(c1ccco1)CC2C(F)(F)F)N1CCN(c2cccc(Cl)c2)CC1 (stereo not drawn) | 2.06 µM [falling, partial curve, poor fit] | 
24 | O=C(Nc1cccc(Cn2cccn2)c1)c1cc2c(s1)CCCC2 | 29.1 µM [falling, single point] | 
25 | CC(=O)Nc1ccc(-n2nnnc2SCC(=O)Nc2cccc(NC(=O)c3ccco3)c2)cc1 | 1.26 µM [falling, full curve] | 
26 | COC(=O)N(NC(=O)C(O)(CCC(C)C)CCC(C)C)c1ccccc1 | 18.4 µM [falling, partial curve] | 
27 | COc1cccc2c1C(=O)c1c(O)c3c(c(O)c1C2=O)C[C@@](O)(C(=O)CO)C[C@@H]3O[C@H]1C[C@H](N)[C@H](O)[C@H](C)O1 | 0.146 µM [falling, full curve] | 4.11 µM [rising, partial curve]
28 | COC(=O)c1ccccc1NC(=S)NC(=O)COc1ccc(C(C)C)cc1 | 6.51 µM [rising, single point] | 
29 | COC(=O)N/N=C/c1c(C)c(C(=O)c2ccc(F)cc2)n2ccccc12 | 0.82 µM [falling, full curve, poor fit] | 
30 | Cc1cc2nc(N3CCN(C(=O)c4ccco4)CC3)sc2cc1C | 1.64 µM [rising, partial curve, poor fit] | 
31 | CCN(CC(O)Cn1c2ccccc2c2ccccc21)S(=O)(=O)c1ccc(F)cc1 (stereo not drawn) | 7.31 µM [falling, partial curve] | 4.11 µM [rising, full curve, poor fit]
32 | COc1ccc(Cl)cc1NC(=O)CN1C(=O)CC(C)S(=O)(=O)c2ccccc21 (stereo not drawn) | 35.5 µM [falling, partial curve, poor fit] | 
33 | O=C(COc1ccc(Cl)cc1Cl)NCCC1=CCCCC1 | 10 µM [rising, partial curve, poor fit] | 
34 | CCOc1ccc2nc(SCC(=O)c3ccc(C)s3)sc2c1 | 3.66 µM [rising, single point] | 
35 | O=C(CCN1C(=O)/C(=C/c2ccc3c(c2)OCO3)SC1=S)Nc1cccc(C(=O)O)c1 | 5.62 µM [falling, partial curve] | 
36 | COc1ccccc1CNC(=O)CC(C)c1ccccc1 (stereo not drawn) | 0.708 µM [rising, full curve, poor fit] | 
37 | CCC(=O)Nc1ccc(C(=O)c2ccccc2)cc1 | 35.5 µM [falling, single point] | 
38 | CN(Cc1ccccc1)C(=S)NC(=O)c1ccccc1 | 35.5 µM [rising, single point] | 
39 | COc1cc(NC(=O)CN2CCCCC2)c(C)cc1[N+](=O)[O-] | 32.6 µM [rising, single point] | 
40 | Cc1nnc(SCC(=O)Nc2ncc(Cl)cc2Cl)n1Cc1ccccc1 | 23.1 µM [rising, single point] | 
41 | CC1=C(C(=O)OC(C)C)C(C)NC(=O)N1 (stereo not drawn) | 20 µM [rising, partial curve, poor fit] | 
42 | CCOC(=O)c1csc(COc2ccccc2Cl)n1 | 0.0891 µM [rising, full curve, poor fit] | 

Two entries from above, as labelled records:
O=C(COc1ccc(Cl)cc1Cl)NCCC1=CCCCC1
  AC50 [1]: 10 µM [rising, partial curve, poor fit]
Cc1nnc(SCC(=O)Nc2ncc(Cl)cc2Cl)n1Cc1ccccc1
  AC50 [1]: 23.1 µM [rising, single point]

Following part:

Row | SMILES | AC50 [1] | AC50 [2]
43 | COc1ccc(C2C(C(=O)c3ccccc3)N3c4ccccc4C=CC3C2[N+](=O)[O-])cc1 (stereo not drawn) | 6.31 µM [rising, single point] | 
44 | CCOc1ccc(-c2[nH]nc3c2C(c2ccc(O)cc2)C(C#N)=C(N)O3)cc1 (stereo not drawn) | 29.1 µM [falling, single point] | 
45 | OC(COc1cccc2ccccc12)CN1CCN(c2ccccn2)CC1 (stereo not drawn) | 25.1 µM [falling, single point] | 
46 | CC(=O)c1sc(NC(=O)CCN2C(=O)C3CC=CCC3C2=O)nc1-c1ccccc1 (stereo not drawn) | 5.8 µM [falling, partial curve, poor fit] | 
47 | CCOc1ccccc1OCC(=O)Nc1ccc(S(=O)(=O)N(C)C)cc1 | 6.31 µM [falling, partial curve, poor fit] | 
48 | COCCn1nnnc1C(C(C)C)N(Cc1ccccc1)Cc1cc2cc(OC)ccc2[nH]c1=O (stereo not drawn) | 16.4 µM [rising, partial curve] | 14.6 µM [falling, partial curve]
49 | COc1cc(SC)ccc1C(=O)NNC(=O)c1cc(C)oc1C | 16.4 µM [falling, partial curve] | 
50 | CN1CCC(=NNC(=O)C(=O)Nc2ccccc2F)CC1 | 8.91 µM [falling, partial curve] | 
51 | Cc1cc(CNC(=O)c2ccc(C)c([N+](=O)[O-])c2)c2ccccc2n1 | 22.4 µM [rising, single point] | 22.4 µM [falling, single point]
52 | O=C(Nc1ccc2c(c1)OCCO2)NC1CCCCC1 | 25.9 µM [falling, partial curve, poor fit] | 
53 | Cc1cc(C)nc(N/N=C/c2c(C)oc3ccccc23)n1 | 14.1 µM [rising, partial curve, poor fit] | 
54 | N#Cc1ccccc1COC(=O)c1ccc2c(c1)OCO2 | 29.1 µM [rising, single point] | 
55 | Cc1ccsc1/C=N/NC(=O)c1ccncc1 |  | 22.4 µM [falling, single point]
56 | CCOC(=O)N/N=C/c1cn(Cc2ccc(F)cc2)c2ccccc12 | 35.5 µM [rising, single point] | 
57 | COc1ccc2c(c1)[C@H]1[C@H](CO2)[C@H](c2ccccc2)[C@]2(C)C(=O)Nc3cc(F)c(F)cc3C(=O)N12 | 2.91 µM [falling, full curve] | 
58 | O=C(NCc1ccccc1)C(=O)Nc1cccc(C(=O)O)c1 | 0.631 µM [falling, full curve] | 
59 | Fc1ccc(CN2CCCN(C(=S)Nc3ccc(F)cc3)CC2)cc1 | 25.1 µM [falling, single point] | 
60 | O=C(CCC(=O)Nc1cccc([N+](=O)[O-])c1)NCc1ccccc1 | 0.562 µM [rising, full curve, poor fit] | 
61 | COc1cc2cc(/C=C/C(=O)c3ccco3)c(Cl)nc2cc1OC | 1.16 µM [falling, full curve, poor fit] | 
62 | O=C(O)CC(NNC(=O)c1ccccc1)C(=O)Nc1ccc([N+](=O)[O-])cc1 (stereo not drawn) | 12.6 µM [falling, partial curve, poor fit] | 
